Literature values as cited in paper PMC10049421, “Anticancer Activity of Sunitinib Analogues in Human Pancreatic Cancer Cell Cultures under Normoxia and Hypoxia” (International Journal of Molecular Sciences, 2023).

Columns and labels:
MIA PaCa-2 cell line = details: cited from earlier work
AsPC-1 cell line = details: cited from earlier work

Cc1ccc(NC(=O)c2ccc(CN3CCN(C)CC3)cc2)cc1Nc1nccc(-c2cccnc2)n1 [imatinib]
EC50 (MIA PaCa-2 cell line): 9 µM
EC50 (AsPC-1 cell line): 20 µM
